Source: PubChem BioAssay AID248 (DTP/NCI, 2004)
The list does not hold the whole screen: it covers a few groups of compounds. Not every dose and run of a compound is shown. T/C: endpoint of the treated group in % of that of the vehicle group. Where survival is the endpoint, this PubChem deposit counts one and a half times the control or more as active, and values a quarter to a half above the control carry no call in these data; other NCI protocols may use other cut-offs. Some entries show no survivor count and are marked so; the dose need not have been tolerated. Schedules are NCI's codes, read here as Q, the interval in days (D) or hours (H), X, the number of doses. Some schedule codes hold Z or #, which are not explained here. Some entries were tested several times; their values stand side by side, smallest first.

Tested on: L1210 leukemia ip in BDF1 mice, survival T/C
Experiment: NCI In Vivo Anticancer Drug Screen. Data for tumor model L1210 Leukemia (intraperitoneal) in B6D2F1 (BDF1) mice
Conditions: T/C endpoint: mean survival time, higher T/C = longer survival
[1] = dose: 100.0 mg/kg/injection, schedule: Q01DX001 (ip), vehicle: Klucel (hydroxypropylcellulose) (HPC)
[2] = dose: 200.0 mg/kg/injection, schedule: Q01DX001 (ip), vehicle: Klucel (hydroxypropylcellulose) (HPC)
[3] = dose: 400.0 mg/kg/injection, schedule: Q01DX001 (ip), vehicle: Klucel (hydroxypropylcellulose) (HPC)

ClCCN(CCCl)Cc1ccc(Cl)cc1
T/C (dose: 5.0 mg/kg/injection, schedule: Q01DX001 (ip), vehicle: carboxymethylcellulose (CMC)): 105 % of control [survivor count not shown]
T/C (dose: 10.0 mg/kg/injection, schedule: Q01DX001 (ip), vehicle: carboxymethylcellulose (CMC)): 105 % of control [survivor count not shown]
T/C (dose: 10.0 mg/kg/injection, schedule: Q04DX003 (ip), vehicle: carboxymethylcellulose (CMC)): 116 % of control [survivor count not shown]
T/C (dose: 20.0 mg/kg/injection, schedule: Q01DX001 (ip), vehicle: carboxymethylcellulose (CMC)): 107 % of control [survivor count not shown]
T/C (dose: 20.0 mg/kg/injection, schedule: Q04DX003 (ip), vehicle: carboxymethylcellulose (CMC)): 121 % of control [survivor count not shown]
T/C (dose: 40.0 mg/kg/injection, schedule: Q01DX001 (ip), vehicle: carboxymethylcellulose (CMC)): 112 % of control [survivor count not shown]
T/C (dose: 40.0 mg/kg/injection, schedule: Q04DX003 (ip), vehicle: carboxymethylcellulose (CMC)): 117 % of control [survivor count not shown]

CCOc1ccccc1N(CCCl)CCCl
T/C (dose: 4.0 mg/kg/injection, schedule: Q01DX Z (ip), vehicle: methylcellulose (MC)): 102 % of control [survivor count not shown]
T/C (dose: 6.0 mg/kg/injection, schedule: Q01DX Z (ip), vehicle: methylcellulose (MC)): 111 % of control [survivor count not shown]
T/C (dose: 9.0 mg/kg/injection, schedule: Q01DX Z (ip), vehicle: methylcellulose (MC)): 111 % of control [survivor count not shown]

Oc1ccc(N(CCCl)CCCl)cc1
T/C (dose: 15.0 mg/kg/injection, schedule: Q01DX001 (ip), vehicle: carboxymethylcellulose (CMC)): 118 % of control [survivor count not shown]
T/C (dose: 30.0 mg/kg/injection, schedule: Q01DX001 (ip), vehicle: carboxymethylcellulose (CMC)): 111 % of control [survivor count not shown]

Cc1ccc(S(=O)(=O)N(CCCl)CCCl)cc1
T/C [1]: 100 % of control [survivor count not shown]
T/C [2]: 95 % of control [survivor count not shown]
T/C [3]: 101 % of control [survivor count not shown]

N#Cc1ccc(C(=O)CBr)cc1
T/C (dose: 12.5 mg/kg/injection, schedule: Q04DX003 (ip), vehicle: Klucel (hydroxypropylcellulose) (HPC)): 89 % of control [survivor count not shown]
T/C (dose: 25.0 mg/kg/injection, schedule: Q04DX003 (ip), vehicle: Klucel (hydroxypropylcellulose) (HPC)): 93 % of control [survivor count not shown]
T/C (dose: 50.0 mg/kg/injection, schedule: Q04DX003 (ip), vehicle: Klucel (hydroxypropylcellulose) (HPC)): 94 % of control [survivor count not shown]

CC(C)(C)C(=O)CBr
T/C (dose: 100.0 mg/kg/injection, schedule: Q04DX002 (ip), vehicle: Klucel (hydroxypropylcellulose) (HPC)): 100 % of control [survivor count not shown]
T/C (dose: 200.0 mg/kg/injection, schedule: Q04DX002 (ip), vehicle: Klucel (hydroxypropylcellulose) (HPC)): 88 % of control [survivor count not shown]

CCOc1ccc([N+](=O)[O-])cc1CN(CCBr)CCBr
T/C [1]: 94 % of control [survivor count not shown]
T/C [2]: 96 % of control [survivor count not shown]
T/C [3]: 105 % of control [survivor count not shown]

O=P(NC1CCCCC1)(N(CCCl)CCCl)N1CC1 (centres undefined)
T/C (dose: 2.0 mg/kg/injection, schedule: Q01DX Z (ip), vehicle: saline): 104 % of control [survivor count not shown]
T/C (dose: 4.0 mg/kg/injection, schedule: Q01DX Z (ip), vehicle: saline): 97 % of control [survivor count not shown]
T/C (dose: 8.0 mg/kg/injection, schedule: Q01DX Z (ip), vehicle: saline): 104 % of control [survivor count not shown]
T/C (dose: 16.0 mg/kg/injection, schedule: Q01DX Z (ip), vehicle: saline): 129 [survivor count not shown] and 162 % of control [survivor count not shown]
T/C (dose: 32.0 mg/kg/injection, schedule: Q01DX Z (ip), vehicle: saline): 89 % of control [survivor count not shown]

COc1cccc(N(CCCl)CCCl)c1OC
T/C (dose: 12.0 mg/kg/injection, schedule: Q01DX Z (ip), vehicle: carboxymethylcellulose (CMC)): 112 % of control [survivor count not shown]
T/C (dose: 15.0 mg/kg/injection, schedule: Q01DX Z (oral), vehicle: methylcellulose (MC)): 88 % of control [survivor count not shown]
T/C (dose: 24.0 mg/kg/injection, schedule: Q01DX Z (ip), vehicle: carboxymethylcellulose (CMC)): 106 % of control [survivor count not shown]
T/C (dose: 30.0 mg/kg/injection, schedule: Q01DX Z (oral), vehicle: methylcellulose (MC)): 94 % of control [survivor count not shown]
T/C (dose: 36.0 mg/kg/injection, schedule: Q01DX Z (ip), vehicle: carboxymethylcellulose (CMC)): 104 % of control [survivor count not shown]
T/C (dose: 54.0 mg/kg/injection, schedule: Q01DX Z (ip), vehicle: carboxymethylcellulose (CMC)): 114 % of control [survivor count not shown]
T/C (dose: 60.0 mg/kg/injection, schedule: Q01DX Z (oral), vehicle: methylcellulose (MC)): 97 % of control [survivor count not shown]
T/C (dose: 80.0 mg/kg/injection, schedule: Q01DX Z (ip), vehicle: carboxymethylcellulose (CMC)): 124 % of control [survivor count not shown]
T/C (dose: 120.0 mg/kg/injection, schedule: Q01DX Z (oral), vehicle: methylcellulose (MC)): 93 % of control [survivor count not shown]

ClCCN(CCCl)Cc1nc2ccc(Cl)cc2[nH]1
T/C (dose: 3.0 mg/kg/injection, schedule: Q01DX010 (ip), vehicle: carboxymethylcellulose (CMC)): 93 % of control [survivor count not shown]
T/C (dose: 6.0 mg/kg/injection, schedule: Q01DX010 (ip), vehicle: carboxymethylcellulose (CMC)): 96 % of control [survivor count not shown]
T/C (dose: 10.0 mg/kg/injection, schedule: Q01DX001 (ip), vehicle: saline): 109 % of control [survivor count not shown]
T/C (dose: 12.0 mg/kg/injection, schedule: Q01DX010 (ip), vehicle: carboxymethylcellulose (CMC)): 100 % of control [survivor count not shown]
T/C (dose: 20.0 mg/kg/injection, schedule: Q01DX001 (ip), vehicle: saline): 111 % of control [survivor count not shown]
T/C (dose: 24.0 mg/kg/injection, schedule: Q01DX010 (ip), vehicle: carboxymethylcellulose (CMC)): 108 % of control [survivor count not shown]
T/C (dose: 40.0 mg/kg/injection, schedule: Q01DX001 (ip), vehicle: saline): 105 % of control [survivor count not shown]
